This passage reports binding results from publication PMC10462666.

The chains behind the UniProt entries cited, without tags or fusion partners. Where a name states a change or a piece, a line headed by the entry shows the natural chain unless it says otherwise.
UniProt Q15154: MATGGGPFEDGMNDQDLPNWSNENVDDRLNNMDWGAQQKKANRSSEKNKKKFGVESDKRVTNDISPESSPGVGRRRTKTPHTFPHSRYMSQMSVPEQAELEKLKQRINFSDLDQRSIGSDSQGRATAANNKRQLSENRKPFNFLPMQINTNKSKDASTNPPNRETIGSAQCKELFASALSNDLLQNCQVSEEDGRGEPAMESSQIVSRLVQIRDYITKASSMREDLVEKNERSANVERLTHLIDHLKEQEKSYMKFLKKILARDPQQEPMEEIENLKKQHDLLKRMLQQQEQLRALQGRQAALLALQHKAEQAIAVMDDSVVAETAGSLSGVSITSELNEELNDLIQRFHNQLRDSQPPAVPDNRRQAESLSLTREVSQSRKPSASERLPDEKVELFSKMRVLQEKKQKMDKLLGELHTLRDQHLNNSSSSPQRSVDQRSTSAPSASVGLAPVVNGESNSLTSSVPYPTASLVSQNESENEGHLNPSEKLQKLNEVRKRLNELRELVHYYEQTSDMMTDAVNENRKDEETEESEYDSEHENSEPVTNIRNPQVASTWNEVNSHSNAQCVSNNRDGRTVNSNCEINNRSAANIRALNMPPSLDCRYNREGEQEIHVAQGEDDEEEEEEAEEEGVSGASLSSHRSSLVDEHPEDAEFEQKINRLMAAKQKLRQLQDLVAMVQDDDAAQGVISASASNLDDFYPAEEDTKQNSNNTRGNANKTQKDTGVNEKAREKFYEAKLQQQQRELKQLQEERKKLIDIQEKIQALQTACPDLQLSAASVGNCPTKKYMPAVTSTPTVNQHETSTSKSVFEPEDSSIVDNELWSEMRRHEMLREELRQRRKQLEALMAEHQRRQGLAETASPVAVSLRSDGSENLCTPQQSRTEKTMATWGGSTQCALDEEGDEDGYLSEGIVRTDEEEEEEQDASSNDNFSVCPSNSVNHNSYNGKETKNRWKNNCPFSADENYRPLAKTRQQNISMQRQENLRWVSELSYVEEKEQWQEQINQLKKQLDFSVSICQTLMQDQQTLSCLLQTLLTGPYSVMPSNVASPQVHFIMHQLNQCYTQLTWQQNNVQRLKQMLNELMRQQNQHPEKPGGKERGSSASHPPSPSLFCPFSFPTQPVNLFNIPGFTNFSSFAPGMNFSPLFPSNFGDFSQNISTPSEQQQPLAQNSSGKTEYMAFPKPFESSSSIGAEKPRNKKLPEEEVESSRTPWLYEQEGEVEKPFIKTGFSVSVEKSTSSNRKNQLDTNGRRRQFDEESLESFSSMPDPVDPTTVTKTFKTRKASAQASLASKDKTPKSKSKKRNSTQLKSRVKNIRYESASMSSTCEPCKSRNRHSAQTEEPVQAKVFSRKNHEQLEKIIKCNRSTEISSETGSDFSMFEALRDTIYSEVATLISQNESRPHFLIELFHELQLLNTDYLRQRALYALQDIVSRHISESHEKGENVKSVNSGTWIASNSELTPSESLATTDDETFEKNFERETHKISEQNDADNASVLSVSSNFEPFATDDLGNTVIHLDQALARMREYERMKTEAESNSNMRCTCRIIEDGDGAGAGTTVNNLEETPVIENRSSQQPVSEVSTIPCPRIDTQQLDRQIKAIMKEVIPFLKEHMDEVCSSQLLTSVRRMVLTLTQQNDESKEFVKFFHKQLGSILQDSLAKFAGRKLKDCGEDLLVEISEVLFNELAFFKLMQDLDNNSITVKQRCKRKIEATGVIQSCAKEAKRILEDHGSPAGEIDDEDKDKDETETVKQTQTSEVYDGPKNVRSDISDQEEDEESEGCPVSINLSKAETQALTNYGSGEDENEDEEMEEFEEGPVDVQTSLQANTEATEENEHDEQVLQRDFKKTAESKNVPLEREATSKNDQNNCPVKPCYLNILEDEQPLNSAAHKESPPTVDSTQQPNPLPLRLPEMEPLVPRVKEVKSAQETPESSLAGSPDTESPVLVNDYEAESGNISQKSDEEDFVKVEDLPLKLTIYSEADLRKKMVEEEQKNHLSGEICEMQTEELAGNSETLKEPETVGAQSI
UniProt O60884: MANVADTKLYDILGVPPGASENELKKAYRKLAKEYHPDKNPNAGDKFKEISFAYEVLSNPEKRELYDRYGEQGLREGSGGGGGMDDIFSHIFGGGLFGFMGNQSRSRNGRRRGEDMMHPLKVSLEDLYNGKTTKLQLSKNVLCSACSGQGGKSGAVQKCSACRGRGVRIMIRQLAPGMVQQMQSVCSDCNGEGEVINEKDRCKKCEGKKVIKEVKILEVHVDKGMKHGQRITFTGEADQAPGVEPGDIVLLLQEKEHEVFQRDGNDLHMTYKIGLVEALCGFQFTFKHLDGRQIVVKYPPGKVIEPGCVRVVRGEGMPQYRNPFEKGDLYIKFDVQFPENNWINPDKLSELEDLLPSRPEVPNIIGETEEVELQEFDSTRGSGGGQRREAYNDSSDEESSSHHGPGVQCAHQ
UniProt P11142: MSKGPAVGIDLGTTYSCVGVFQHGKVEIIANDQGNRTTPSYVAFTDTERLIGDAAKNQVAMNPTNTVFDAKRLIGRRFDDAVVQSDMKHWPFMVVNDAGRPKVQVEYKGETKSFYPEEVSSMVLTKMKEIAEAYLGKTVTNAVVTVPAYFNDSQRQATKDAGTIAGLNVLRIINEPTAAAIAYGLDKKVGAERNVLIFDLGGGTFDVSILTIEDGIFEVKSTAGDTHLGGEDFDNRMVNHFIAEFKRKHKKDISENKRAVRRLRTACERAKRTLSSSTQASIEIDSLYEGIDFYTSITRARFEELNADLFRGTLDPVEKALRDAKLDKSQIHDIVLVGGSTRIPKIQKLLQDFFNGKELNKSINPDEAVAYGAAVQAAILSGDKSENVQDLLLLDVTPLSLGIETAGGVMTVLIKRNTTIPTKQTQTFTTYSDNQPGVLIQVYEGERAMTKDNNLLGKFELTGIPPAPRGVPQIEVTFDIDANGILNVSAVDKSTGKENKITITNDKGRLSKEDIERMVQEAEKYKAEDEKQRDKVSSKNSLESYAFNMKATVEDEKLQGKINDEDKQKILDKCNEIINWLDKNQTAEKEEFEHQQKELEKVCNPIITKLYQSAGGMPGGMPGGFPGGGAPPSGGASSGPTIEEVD

This experiment concerns the target HA-tagged PCM1 KFERQ mutant (2AA) (human) (UniProt Q15154). The experiment can be described thus: co-IP; lysate of HeLa cells expressing HA-tagged WT or 2AA PCM1; anti-HA antibody, Protein G agarose; Western blot for HSC70 and DNAJA2. Background: Immunoblotting shows a protein as a band on a membrane.

Results are given in words; binding and its absence hold for the method and conditions named. In cells and extracts the contact can be indirect. Binding can be weak; no strength is given.

Regarding “DnaJ heat shock protein (HSP40) family member A2 (DNAJA2) (from UniProt O60884 1-412)”, the binding entry is listed as “binds”.
As for “HSC70 (the 71 kDa heat shock cognate) (from UniProt P11142 1-646)”, the entry is “binds”.
